# Library screen at single concentrations

By UniProt entry, the sequences of proteins in these tests, tags left out. Residues count along the entry.
UniProt A4I591, 1-473: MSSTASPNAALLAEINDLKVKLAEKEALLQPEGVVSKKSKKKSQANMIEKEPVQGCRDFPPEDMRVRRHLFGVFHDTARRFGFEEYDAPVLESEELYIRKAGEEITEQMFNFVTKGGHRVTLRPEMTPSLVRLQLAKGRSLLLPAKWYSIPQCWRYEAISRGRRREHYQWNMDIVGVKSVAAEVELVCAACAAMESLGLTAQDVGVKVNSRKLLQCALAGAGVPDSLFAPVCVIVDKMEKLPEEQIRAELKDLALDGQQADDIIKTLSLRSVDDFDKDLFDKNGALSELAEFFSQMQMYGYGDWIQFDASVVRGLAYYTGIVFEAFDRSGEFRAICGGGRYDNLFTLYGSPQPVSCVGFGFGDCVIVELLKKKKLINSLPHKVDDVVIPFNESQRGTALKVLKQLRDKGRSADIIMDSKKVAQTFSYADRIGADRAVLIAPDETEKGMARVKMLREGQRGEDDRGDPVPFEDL
UniProt I6X8D2, whole entry: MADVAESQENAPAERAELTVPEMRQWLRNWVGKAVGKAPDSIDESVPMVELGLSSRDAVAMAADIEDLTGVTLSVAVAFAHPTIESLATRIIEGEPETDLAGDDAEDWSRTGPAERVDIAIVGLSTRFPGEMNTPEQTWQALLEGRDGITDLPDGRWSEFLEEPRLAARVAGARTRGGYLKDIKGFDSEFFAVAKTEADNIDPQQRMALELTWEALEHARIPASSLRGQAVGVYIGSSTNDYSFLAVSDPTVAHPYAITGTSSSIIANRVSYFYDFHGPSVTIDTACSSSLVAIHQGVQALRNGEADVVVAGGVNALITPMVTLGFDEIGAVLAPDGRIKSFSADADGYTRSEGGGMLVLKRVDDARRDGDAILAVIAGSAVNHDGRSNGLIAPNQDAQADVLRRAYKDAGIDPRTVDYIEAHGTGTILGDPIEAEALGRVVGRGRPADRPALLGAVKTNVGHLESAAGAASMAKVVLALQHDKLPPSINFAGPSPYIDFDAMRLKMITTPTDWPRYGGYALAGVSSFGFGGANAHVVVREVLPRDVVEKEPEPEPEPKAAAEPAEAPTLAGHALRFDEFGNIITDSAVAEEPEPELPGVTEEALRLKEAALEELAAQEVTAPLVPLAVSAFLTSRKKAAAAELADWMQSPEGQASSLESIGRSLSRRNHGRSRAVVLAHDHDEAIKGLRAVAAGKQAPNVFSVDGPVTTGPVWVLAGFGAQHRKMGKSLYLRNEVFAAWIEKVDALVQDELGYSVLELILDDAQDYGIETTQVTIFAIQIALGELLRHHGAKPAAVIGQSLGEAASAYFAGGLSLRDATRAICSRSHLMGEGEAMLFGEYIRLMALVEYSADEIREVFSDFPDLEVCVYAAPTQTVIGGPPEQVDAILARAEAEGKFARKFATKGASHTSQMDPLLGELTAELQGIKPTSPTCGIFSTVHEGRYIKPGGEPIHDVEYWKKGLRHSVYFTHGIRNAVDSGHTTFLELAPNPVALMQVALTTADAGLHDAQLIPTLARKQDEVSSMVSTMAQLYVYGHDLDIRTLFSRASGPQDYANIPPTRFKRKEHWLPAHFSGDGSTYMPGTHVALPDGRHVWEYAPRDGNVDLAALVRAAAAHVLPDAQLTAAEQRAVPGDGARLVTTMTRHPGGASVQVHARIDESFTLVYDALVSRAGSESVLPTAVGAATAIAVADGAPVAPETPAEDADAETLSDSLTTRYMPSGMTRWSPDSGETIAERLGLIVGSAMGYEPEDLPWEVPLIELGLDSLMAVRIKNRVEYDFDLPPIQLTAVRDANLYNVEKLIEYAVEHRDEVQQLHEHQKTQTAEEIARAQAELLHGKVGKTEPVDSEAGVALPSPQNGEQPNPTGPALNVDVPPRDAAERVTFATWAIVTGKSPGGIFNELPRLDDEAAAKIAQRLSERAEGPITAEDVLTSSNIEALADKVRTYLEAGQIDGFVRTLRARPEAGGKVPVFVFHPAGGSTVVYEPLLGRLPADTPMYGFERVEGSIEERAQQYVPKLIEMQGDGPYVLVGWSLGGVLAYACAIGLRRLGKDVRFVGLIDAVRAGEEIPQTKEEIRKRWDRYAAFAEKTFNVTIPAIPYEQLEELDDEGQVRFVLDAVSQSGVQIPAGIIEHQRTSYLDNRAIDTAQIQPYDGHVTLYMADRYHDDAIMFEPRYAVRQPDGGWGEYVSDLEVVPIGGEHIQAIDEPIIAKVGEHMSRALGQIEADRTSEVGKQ

Measurements from “University of Dundee, Small-Polar-MMV Screening Library” (2021), ChEMBL document CHEMBL3988442.

Leishmania in macrophages: 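Cell assay of Leishmania donovani living inside macrophages; the read-out is not stated. Tested at 30 µM. Direction is inferred from retests: higher values go with stronger inhibition. About 69,000 compounds were tested under these conditions; 1.5% (about 1,000) showed 50% or more at least once.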
LiHisRS: 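Enzyme assay of histidyl-tRNA synthetase; the read-out is not stated. Target: Histidine-tRNA ligase, Leishmania infantum (UniProt A4I591). Tested at 30 µM. Direction is inferred from retests: higher values go with stronger inhibition. The assay is labelled LdHisRS but filed under L. infantum. Size under these conditions: about 69,000 compounds, about 410 of them at 50% or above in at least one test.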
Pks13 thioesterase: 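Polyketide synthase Pks13, Mycobacterium tuberculosis (UniProt I6X8D2). Enzyme assay of the thioesterase domain of polyketide synthase 13; the read-out is not stated. Compounds at 30 µM. The record gives no direction; the compounds picked for IC50 retests had high values, so higher reads as stronger inhibition. Of about 67,000 compounds tested this way, about 300 (0.46%) reached 50% or more in at least one test.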

Each number is a percent effect as filed.
The record does not define 0% and 100%; most values in the screen are far below 50% and negative numbers occur (in some assays of this library far below -100).
The compounds are a random part of those screened.
Two or more numbers in one place are separate tests of the same structure; such repeats can differ widely.
A dash means the value is not listed here; it may have been measured.

SMILES,Leishmania in macrophages,LiHisRS,Pks13 thioesterase
CCCN(CCc1ccccc1)C(=O)c1ccccc1NCC(=O)O,16.17%,-7.229%,-11.78%
Cc1c(C(=O)N(C)CC(F)(F)F)nnn1-c1ccc(F)cc1,16.88%,8.511%,5.412%
O=C(NCCN1CCNC1=O)c1cc(-c2ccc(O)cc2)n[nH]1,-9.496%,4.255%,-9.398%
CN1CCOC(CNC(=O)CCCOc2ccccc2F)C1 (stereo not given),30.44%,17.02%,-14.41%
CC(=O)c1cccc(OCCCC(=O)N(C)Cc2cnn(C)c2)c1,-2.967%,-12.33%,14.3%
OCCOc1cc(F)ccc1NCc1cccc(F)c1F,-9.622%,12.05%,-3.972%
CCCc1n[nH]c(C2CN(Cc3nnc(C4CC4)o3)CCO2)n1 (stereo not given),-5.221%,-86.52%,-16.18%
c1cncc(CN2CCO[C@@H]3CN(Cc4ccoc4)CC[C@@H]3C2)c1,-,17.65%,-10.85%
O=C(O)C(F)(F)F.[H][C@@]12CN(CC3CCOCC3)C[C@]1([H])C(=O)N(Cc1cccc(F)c1)C2,2.876%,-,-
c1cncc(OCc2noc3c2CN(Cc2ccco2)CC3)c1,-,10.26%,34.69%
CN(C)C[C@]12COC[C@H]1CN(C(=O)Cc1ccc3c(c1)OCO3)C2,-,5.455%,-7.641%
CC(C)c1nc2c(n1C)CCN(CC(=O)Nc1ccncc1)C2,25.14%,11.5%,-4.839%
CC(C)c1cnc(CN(C)C2CCN(CCc3ccncc3)C2)o1 (stereo not given),-6.69%,11.11%,5.354%
Cn1nnc2c1C(COCC1CC1)CN(C(=O)Cc1ccsc1)C2 (stereo not given),5.183%,22.33%,-14.33%
CCN1CCC2(CC1)CC(NC(=O)c1csnn1)c1ccccc1O2 (stereo not given),-,18%,-20.57%
[H][C@]12C[C@H](C(=O)NC)N(S(C)(=O)=O)[C@@]1([H])CN(C(=O)c1ccco1)C2,20.58%,-,-
O=C(CC1CCCO1)NCCc1ccccc1Br (stereo not given),-3.232%,-2.679%,-1.896%
CC(=O)NCCNC(=O)c1nc(C2CC2)n(-c2ccccc2Cl)n1,8.29%,12.5%,3.317%
COCCC1(CO)CCCN(Cc2ccc(C(F)(F)F)nc2)C1 (stereo not given),-6.977%,25%,-26.78%
CSCC[C@H](NC(=O)Cn1ccc2c(Br)cccc21)C(=O)O,0.8225%,15.79%,-22.35%
Clc1ccccc1C1(c2ccnc(C3CC3)n2)CCNCC1,94.79%,24.71%,-3.355%
CC(C)N(C)Cc1nnc2n1CCN(CC1CC1)CC2,-,17.54%,-7.103%
Cc1cc(C(F)(F)F)nc(CCNC(C)Cn2cncn2)n1 (stereo not given),7.886%,9.89%,-5.603%
CCc1ccc(O)c(C(=O)NC2CCN(Cc3ccncc3)CC2)c1,39.91%,6.383%,1.827%
CC[C@H]1N(Cc2ccco2)CCC[C@]12CCC(=O)N2C,16.03%,21.1%,-11.75%
Cc1nc(C2CCN(C(=O)c3cscn3)CC2)c2sccn12,23.59% & 13.28%,22.68%,3.15%
Cc1nc(CN2CCc3nn(C(C)C)c(=O)cc3C2)oc1C,-6.026%,16.67%,2.549%
CN(C)c1ncc2c(c1C(=O)O)CCN(Cc1ccco1)C2,-,11.32%,-8.185%
Cc1nc(Cn2cc(I)cc(C)c2=O)oc1C,-12.75%,12.07%,-51.91%
COc1cccc([C@H]2CN(CCCS(=O)(=O)N(C)C)C[C@@H]2N)c1,17.61%,1.316%,-25.56%
c1ccc(NCc2cn3c(n2)CN(Cc2ccoc2)CC3)nc1,16.6%,14%,-1.417%
CN(C)CCOCc1nnc2n1CCN(Cc1ccco1)CC2.O=C(O)C(F)(F)F.O=C(O)C(F)(F)F,-3.994%,-,-
CCc1nc(CC(=O)Nc2cnn(CC3CCCO3)c2)cs1 (stereo not given),34.42%,13.46%,-6.266%
COCC(=O)N1CCC(c2noc3nc(C)cc(C(F)(F)F)c23)CC1,-15.5%,0%,-31.17%
CN(C)C(=O)N1CCN(C(=O)C(c2ccccc2F)N(C)C)CC1 (stereo not given),16.62%,16.35%,-14.25%
CCn1nc(C)c(CCn2ccnc2-c2cc3n(n2)CCCNC3)c1C,23.64%,18.45%,-11.25%
Cc1n[nH]c(C)c1C1CCCN1C(=O)c1cc(Br)c[nH]1 (stereo not given),-16.34%,15.38%,-0.1668%

Repeated from the top, 3 entries:

With CCCN(CCc1ccccc1)C(=O)c1ccccc1NCC(=O)O the screen gave Leishmania in macrophages: 16.17%; LiHisRS: -7.229%; Pks13 thioesterase: -11.78%.
With Cc1c(C(=O)N(C)CC(F)(F)F)nnn1-c1ccc(F)cc1 the screen gave Leishmania in macrophages: 16.88%; LiHisRS: 8.511%; Pks13 thioesterase: 5.412%.
With O=C(NCCN1CCNC1=O)c1cc(-c2ccc(O)cc2)n[nH]1 the screen gave Leishmania in macrophages: -9.496%; LiHisRS: 4.255%; Pks13 thioesterase: -9.398%.